Results: patent publication US20130065857A1, “NOVEL DXR INHIBITORS FOR ANTIMICROBIAL THERAPY” (Baylor College of Medicine, priority 2009, published 2013)
Where “and” joins values, the source holds several entries; their conditions need not be identical. Equal entries are not always repeated. Some entries share one result that the patent states for a list of compounds. For at least one compound, name, drawing or mass did not settle the structure.

System: E. coli, Pseudomonas aeruginosa, Bacillus anthracis and Micrococcus luteus
Format: cell-based
Conditions: span over four bacterial species

**Q.** How did the “MICs over the four bacteria” value turn out when `Oc1ccc(-c2ccccc2)cn1` [compound 7] was run?
**A.** 200-1000 μM and 37-190 μg/mL
